According to patent EP4825863A1, “DESIGN, PREPARATION AND APPLICATION OF TARGETED ACTIVATION ENRICHMENT TYPE NEAR-INFRARED PROBE AND PHOTOSENSITIZER” (dated 2026):
The match of structure and compound is tentative.

The chains behind the UniProt entries cited, without tags or fusion partners. Residues count along the entry.
UniProt P62593, 24-286 limits assumed: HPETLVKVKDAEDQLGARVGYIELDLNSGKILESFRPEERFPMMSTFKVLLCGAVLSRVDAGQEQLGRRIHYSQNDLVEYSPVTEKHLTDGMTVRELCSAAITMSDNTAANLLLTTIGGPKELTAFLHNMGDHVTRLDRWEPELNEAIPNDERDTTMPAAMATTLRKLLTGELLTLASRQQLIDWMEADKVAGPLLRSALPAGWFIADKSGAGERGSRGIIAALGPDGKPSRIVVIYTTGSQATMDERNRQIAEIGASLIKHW

Key:
[1] = In vivo safety (blood routine, blood biochemistry, H&E staining); settings: 1 µmol/kg tail vein, 24 hours after injection
Experimental: Experimental conditions: The in vivo safety of probes was evaluated by analyzing blood routine parameters, blood biochemical indicators, and histological staining. Female BALB/c mice aged 4 to 6 weeks were obtained from the Shanghai Laboratory Animal Research Center. The mice were housed at 25°C with free access to food and water. For histological analysis, the mice were divided into three groups with three mice per group, and administered normal saline, the primary probe BIN-3, and the control probe BIN-2 (1 µmol/kg) via tail vein injection. Twenty-four hours after injection of normal saline or probes, the mice were euthanized and dissected. Tissue sections were prepared from the organs (heart, lungs, liver, spleen, and kidneys) and subjected to hematoxylin and eosin (H&E) staining. For hematological analysis, the mice were divided into three groups with three mice per group, and administered normal saline, BIN-3, and BIN-2 (1 µmol/kg) via tail vein injection. Twenty-four hours after injection, blood samples were collected from the mice in each group and submitted for blood routine analysis.

β-lactamase TEM-1 = β-lactamase TEM-1 (Escherichia coli, UniProt P62593); experiment: SDS-PAGE and dual-color near-infrared fluorescence scanning (protein labeling); settings: 10 µM, TEM-1 5 µM, BSA 10 µM
Experimental: Experimental conditions: A 12% SDS-PAGE resolving gel and a 5% stacking gel were prepared. The probes and photosensitizers were prepared as 10 µM working solutions in PBS (pH = 7.4) and incubated with different proteins at 37°C for 2 hours. The concentrations of β-lactamase TEM-1 and BSA were 5 µM and 10 µM, respectively. For the inhibitor group, the inhibitor avibactam (1 mM) was pre-incubated with TEM-1 for 30 minutes before co-incubation with the probe. Subsequently, SDS-PAGE loading buffer was added to the samples and mixed thoroughly. Each sample (15 µL) was loaded onto the gel and subjected to electrophoresis. Upon completion, fluorescent bands were obtained using dual-color near-infrared fluorescence scanning. Finally, the gel was stained with Coomassie Brilliant Blue and photographed using a gel imaging system.

**Q.** Which “blood routine, blood biochemical indicators and H&E staining of major organs versus normal saline” value [1] does the source give for CCC[N+]1=C(/C=C/C2=C3Oc4cc(OCC5=C(C(=O)O)N6C(=O)[C@@H](NC(=O)CCc7cn(CC[N+](C)(C)CCCS(=O)(=O)O)nn7)[C@H]6SC5)c(COC(=O)NCC)cc4C=C3CCC2)C(C)(C)c2ccccc21 here?
**A.** no significant differences were observed

**Q.** With CCC[N+]1=C(/C=C/C2=C3Oc4cc(OCC5=C(C(=O)O)N6C(=O)[C@@H](NC(=O)CCc7cn(CC[N+](C)(C)CCCS(=O)(=O)O)nn7)[C@H]6SC5)ccc4C=C3CCC2)C(C)(C)c2ccccc21 as the molecule, how does the “labeling of BSA protein after activation by TEM-1” value (β-lactamase TEM-1) read?
**A.** did not exhibit any protein-labeling capability

**Q.** What about the “blood routine, blood biochemical indicators and H&E staining of major organs versus normal saline” value [1] of the same molecule?
**A.** no significant differences were observed

**Q.** For C[N+]1=C(/C=C/C2=C3Oc4cc(OCC5=C(C(=O)O)N6C(=O)[C@@H](NC(=O)CCc7cn(C(CC(=O)O)C(=O)O)nn7)[C@H]6SC5)ccc4C=C3CCC2)C(C)(C)c2cc(I)ccc21 (stereo partly shown), which “labeling of BSA protein after activation by TEM-1” value (β-lactamase TEM-1) is on record?
**A.** did not exhibit any protein-labeling capability
